SMILES strings stand for the structures.

This data set has as its system Rhodococcus aetherivorans BCP1. The experiment in a line: TeO3^2− consumption assay, growing BCP1 cells. It counts as cell-based.

`O=[Te]([O-])[O-].[K+].[K+]` [K2TeO3, potassium tellurite]: the “reduction of TeO3^2− faster in conditioned than unconditioned cells” value (100 μg/mL K2TeO3) is recorded as 12 h. For the same compound, the “amount of residual oxyanions present in the medium” value (conditioned cells, 500 μg/mL K2TeO3) amounted to 152 µg. Besides, for the setting “conditioned cells, 500 μg/mL K2TeO3, 5 culturing days”, the “reduction of the initial concentration of TeO3^2−” value turned out to be 348 µg. For the same compound, the “reduction of TeO3^2− oxyanions during lag phase” value (conditioned cells, 500 μg/mL K2TeO3, initial 36 h) is 56 µg. Also, under “unconditioned BCP1 cells, 100 μg/mL K2TeO3”, the “time to complete reduction of TeO3^2−” value is reported as 48 h. The “decrease of initial amount of oxyanions during lag phase” value (unconditioned cells, 500 μg/mL K2TeO3, 24 h) was found to be 153 µg. The “reduction of the initial amount of TeO3^2−” value is, setting by setting: (unconditioned cells, 500 μg/mL K2TeO3, 120 h) “about 45%”; (unconditioned cells, 500 μg/mL K2TeO3, 120 h (5 culturing days)) 218 µg.

These data come from patent US20200010857A1 (priority 2016, published 2020).
